According to publication PMC9232578:
Results are given in words; binding and its absence hold for the method and conditions named. Binding seen in cells or lysates may run through a third protein. A yes stands for co-enrichment or nearness to the bait. Other partners may have been found. Where a sequence is shown, tags or fusion partners need not be part of it.

T1: COX11-FLAG (human) (UniProt Q9Y6N1)
T1 sequence: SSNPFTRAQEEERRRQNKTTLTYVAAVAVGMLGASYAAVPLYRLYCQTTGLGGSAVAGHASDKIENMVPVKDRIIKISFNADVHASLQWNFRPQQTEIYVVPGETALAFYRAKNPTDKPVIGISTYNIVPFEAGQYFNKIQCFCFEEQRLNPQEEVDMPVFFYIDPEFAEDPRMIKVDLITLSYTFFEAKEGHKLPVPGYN

T2: PET191-FLAG (human) (UniProt Q86WW8)
T2 sequence: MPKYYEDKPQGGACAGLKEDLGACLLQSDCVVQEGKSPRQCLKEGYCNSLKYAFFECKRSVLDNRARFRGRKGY

T3: COX19-FLAG (human) (UniProt Q49B96)
T3 sequence: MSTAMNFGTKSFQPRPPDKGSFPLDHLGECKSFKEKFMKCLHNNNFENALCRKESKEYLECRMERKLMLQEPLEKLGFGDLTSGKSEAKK


How the values were obtained:
Assay in all cases: affinity purification with mass spectrometry; FLAG IPs of COX11, COX19 and PET191 as for the immunoblots, eluted with 62.5 mM Tris-HCl pH 6.5, 2% SDS, acetone-precipitated, LC-MS/MS
COX11-FLAG (human) = target: T1, COX11-FLAG (human)
PET191-FLAG (human) = target: T2, PET191-FLAG (human)
COX19-FLAG (human) = target: T3, COX19-FLAG (human)

Binder | binding (COX11-FLAG (human)) | binding (PET191-FLAG (human)) | binding (COX19-FLAG (human))
HCCS (enzyme, UniProt P53701 1-268) MGLSPSAPAVAVQASNASASPPSGCPMHEGKMKGCPVNTEPSGPTCEKKTYSVPAHQERAYEYVECPIRGTAAENKENLDPSNLMPPPNQTPAPDQPFALSTVREESSIPRADSEKKWVYPSEQMFWNAMLKKGWKWKDEDISQKDMYNIIRIHNQNNEQAWKEILKWEALHAAECPCGPSLIRFGGKAKEYSPRARIRSWMGYELPFDRHDWIINRCGTEVRYVIDYYDGGEVNKDYQFTILDVRPALDSLSAVWDRMKVAWWRWTS | binds | binds | 
SCO2 (endogenous) (protein, UniProt O43819 42-266) GPAETGGQGQPQGPGLRTRLLITGLFGAGLGGAWLALRAEKERLQQQKRTEALRQAAVGQGDFHLLDHRGRARCKADFRGQWVLMYFGFTHCPDICPDELEKLVQVVRQLEAEPGLPPVQPVFITVDPERDDVEAMARYVQDFHPRLLGLTGSTKQVAQASHSYRVYYNAGPKDEDQDYIVDHSIAIYLLNPDGLFTDYYGRSRSAEQISDSVRRHMAAFRSVLS | binds |  | 
COA7 (protein, UniProt Q96BR5 1-231) MAGMVDFQDEEQVKSFLENMEVECNYHCYHEKDPDGCYRLVDYLEGIRKNFDEAAKVLKFNCEENQHSDSCYKLGAYYVTGKGGLTQDLKAAARCFLMACEKPGKKSIAACHNVGLLAHDGQVNEDGQPDLGKARDYYTRACDGGYTSSCFNLSAMFLQGAPGFPKDMDLACKYSMKACDLGHIWACANASRMYKLGDGVDKDEAKAEVLKNRAQQLHKEQQKGVQPLTFG | binds | binds | 
COX19 (endogenous) (protein, UniProt Q49B96 1-90) MSTAMNFGTKSFQPRPPDKGSFPLDHLGECKSFKEKFMKCLHNNNFENALCRKESKEYLECRMERKLMLQEPLEKLGFGDLTSGKSEAKK | binds |  | 

The remaining lines, values ahead:

binding (COX11-FLAG (human)) | binding (PET191-FLAG (human)) | binding (COX19-FLAG (human)) | Binder
binds | binds | binds | SCO1 (endogenous) (protein, UniProt O75880 68-301) STARPPPPWSQKGPGDSTRPSKPGPVSWKSLAITFAIGGALLAGMKHVKKEKAEKLEKERQRHIGKPLLGGPFSLTTHTGERKTDKDYLGQWLLIYFGFTHCPDVCPEELEKMIQVVDEIDSITTLPDLTPLFISIDPERDTKEAIANYVKEFSPKLVGLTGTREEVDQVARAYRVYYSPGPKDEDEDYIVDHTIIMYLIGPDGEFLDYFGQNKRKGEIAASIATHMRPYRKKS
binds | binds |  | COX15 (enzyme, UniProt Q7KZN9 1-410) MQRLLFPPLRALKGRQYLPLLAPRAAPRAQCDCIRRPLRPGQYSTISEVALQSGRGTVSLPSKAAERVVGRWLLVCSGTVAGAVILGGVTRLTESGLSMVDWHLIKEMKPPTSQEEWEAEFQRYQQFPEFKILNHDMTLTEFKFIWYMEYSHRMWGRLVGLVYILPAAYFWRKGWLSRGMKGRVLALCGLVCFQGLLGWYMVKSGLEEKSDSHDIPRVSQYRLAAHLGSALVLYCASLWTSLSLLLPPHKLPETHQLLQLRRFAHGTAGLVFLTALSGAFVAGLDAGLVYNSFPKMGESWIPEDLFTFSPILRNVFENPTMVQFDHRILGITSVTAITVLYFLSRRIPLPRRTKMAAVTLLALAYTQVGLGISTLLMYVPTPLAATHQSGSLALLTGALWLMNELRRVPK
